Reference: patent US20050032750A1, “Treating androgen deficiency in female (ADIF)-associated conditions with SARMS” (priority 2003, published 2005)
For at least one compound, name, drawing or mass did not settle the structure.

Key:
[1] = system: ovariectomized (OVX) rat model of postmenopausal bone loss; experiment: Whole body DEXA analysis (BMD, percent fat mass, body weight) in OVX rat model; assay type: in vivo; settings: OVX rats, Compound VI 0.5 mg/day + antiandrogen 1.0 mg/day, 120 days
Method: (§1) One hundred twenty female Sprague-Dawley rats were purchased from Harlan (Indiapolis, Ind.). The animals were housed three per cage and were allowed free access to tap water and commercial rat chow (Harlan Teklad 22/5 rodent diet—8640). During the course of the study, the animals were maintained on a 12 hr light:dark cycle. This study was reviewed and approved by the Institutional Laboratory Care and Use Committee of The Ohio State University. […] Dosing solutions were prepared daily by dissolving drug in dimethyl sulfoxide (DMSO) and diluting in polyethylene glycol 300 (PEG 300). All doses were administered for 120 days via daily subcutaneous injections in a volume of 0.20 ml.
Total body bone mineral density (BMD), percent fat mass (FM), and body weight (BW) were determined by dual energy x-ray absorptiometry (DEXA) (GE, Lunar Prodigy™) using the small animal software (Lunar enCORE, version 6.60.041) on days 0 and 120. Total body data was obtained by selecting an area encompassing the entire animal as the region of interest during data processing. For scanning, the animals were anesthetized with ketariine:xylazine (87:13 mg/kg).
(§2) The results were analyzed using Tukey's honestly significant difference method in a one-way analysis of variance and expressed as mean ±S.E.M. Significance was reported when P<0.05. SPSS 11.5.0 (Chicago, Ill.) was used to analyze the results.

[2] = system: ovariectomized (OVX) rat model of postmenopausal bone loss; experiment: Ex vivo DEXA analysis of L2-L4 vertebrae BMD; assay type: in vivo; settings: OVX rats, Compound VI 0.5 mg/day + antiandrogen 1.0 mg/day, 120 days
Method: as §1
Immediately following the whole body DEXA scan on day 120, groups 1-11 were sacrificed, and the lumbar vertebrae, femurs, and tibia were excised and cleared of soft tissue. Group 12 was sacrificed at day 210. The excised bones were scanned through a 3 in deep room temperature water bath, to simulate soft tissue and prevent beam-hardening effects. The L2-L4 vertebrae were selected as a region of interest and analyzed for BMD by DEXA.
as §2

CC(O)(CS(=O)(=O)c1ccc(F)cc1)C(=O)Nc1ccc(C#N)c(C(F)(F)F)c1 (centres unmarked) [bicalutamide, reference compound]
change in whole body BMD: effect of antiandrogen co-administration on Compound VI effect [1]: partially prevent the drug effects
L2-L4 BMD: effect of bicalutamide co-administration on Compound VI effect [2]: completely block the effects of Compound VI
